# Measurements as given in patent publication US10660934B2, “Neuroprotective peptide” (SENJU PHARMACEUTICAL CO., LTD., priority 2016, dated 2020).
# Not every detail of the peptide structures is certain; ends, links or a residue may be inferred. Where no end group is shown, it is not given here.
# System: SH-SY5Y cells
# Assay: Hypoxia-induced cell death assay in human neuroblastoma SH-SY5Y cells (LDH)
# Type: cell-based
# Conditions: 100 nM, 24 hours hypoxia (O2 0.1% or less), glucose-free DMEM, mean ± standard error (n = 3)
# Experimental: SH-SY5Y cells (ATCC) were sustainably cultured in a DMEM/F12 medium (Invitrogen, 11330-032) supplemented with a 10% serum (Invitrogen, 10062-147) under the condition of 37° C. and 5% CO2.
# The cells were seeded on a 96-well plate (Iwaki, 3860-096) at a density of 2×10^4 cells/100 μl/well. The following day the medium was replaced with a DMEM/F12 medium comprising a 1% serum and 10 μM of a retinoic acid (Wako, 302-79-4) and differentiated by incubation for 2 days. After replacing the medium with a glucose-free DMEM medium supplemented with 100 nM of Peptide 1, a hypoxia state (O2 concentration of 0.1% or less) was induced by putting the plate in an Anaero Pack rectangular jar with Anaero Pack Kenki 5% (Mitsubishi Gas Chemical Company, Inc., A-07) with hermetically sealing, and culturing at 37° C. Alter culturing for 24 hours in the hypoxia state, the cell-death inhibiting rate by the peptide was calculated by measuring the amount of LDH in the cells and the medium, using an LDH cytotoxicity detection kit (Takara, MK401). Moreover, 100 nM of an IGF-1 was used as a positive control in the experiment IGF-1 has a protective effect against nerve cell death (Mol. Cell Neurosci, 2011, 47 (3), 181-190). 3. Test Results
sequence,measurement,value
"HPPPPPFQNQQRPP [Peptide 1, HPPPPPFQNQQRPP]",Cell lethality (%),86.1 ± 43.9 %
